Measurements reported in PubChem BioAssay AID743454 (Peter MacCallum Cancer Centre, 2014)
Aim: 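Search for knock-downs that restore vorinostat killing in resistant colon cancer cells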 (primary screen). Cells: human HCT116-VR colon cancer cells, selected for vorinostat resistance. Reagent: siRNA pool against human genes, 40 nM siRNA pool. Time to read-out: vorinostat for 24 h, read-out about 72 h after transfection. Conditions: vorinostat at 2.5 µM final. Read-out: 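Two measures, CellTiter-Fluor viability and luminescent caspase 3/7 activity, each as fold change against same-plate mock wells, mean of duplicates, then screen-wide robust z-score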. Direction: viability robust z-score: higher = more viable cells than screen typical; caspase robust z-score: higher = more caspase 3/7 activity than screen typical. Rule for the call: 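Hits are knock-downs in viability class RV1/RV2 or caspase class CA1/CA2, excluding ones that killed cells in the no-drug cell-count arm; hits then retested with single siRNAs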.
The deposit covers about 18,000 reagents; this is an unselected part. In the full data, 450 (2.5%) are marked active. 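Single biological run; no consistent viability z cut-off exists, so the class columns, not z-scores, define the calls.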 Reagent sequences are not shown.

gene,viability hit class,caspase hit class,viability robust z-score,caspase robust z-score,Outcome
TSNARE1,no change,no change,-0.19,-0.34,inactive
CASK,no change,no change,-0.64,-0.47,inactive
TPMT,no change,no change,0.25,1.4,inactive
HDAC2,no change,no change,0.42,0.12,inactive
NXPE2,no change,no change,1.52,0.57,inactive
MAS1L,no change,no change,0.55,-0.44,inactive
TRMO,no change,no change,-3.23,0.09,inactive
HAUS3,no change,no change,-0.13,-0.88,inactive
KLKB1,no change,no change,0.42,-0.72,inactive
GALNT9,no change,no change,-0.27,-0.52,inactive
TCEAL1,no change,no change,-2,2.35,inactive
CRYGA,no change,no change,-0.23,-0.14,inactive
SCAMP2,no change,no change,0.28,-0.62,inactive
ITGB7,no change,no change,-0.1,-0.6,inactive
NOP9,no change,no change,-1.25,2.8,inactive
RABEP2,no change,no change,-0.1,3.27,inactive
RAB11FIP5,no change,no change,-2.31,0.93,inactive
MTX3,no change,no change,-0.02,-1.08,inactive
LRCH2,no change,no change,-0.67,-0.76,inactive
LMO1,no change,no change,-0.4,0.06,inactive
OR2J3,no change,no change,1.89,0.06,inactive
OPHN1,no change,no change,0.16,-0.54,inactive
ZNF114,no change,no change,-0.14,-0.42,inactive
HUS1B,no change,no change,0.64,-0.86,inactive
NUDCD1,no change,no change,-0.39,-1.12,inactive
NPBWR2,no change,CA2 (caspase activation),0.11,5.77,active
PHF23,no change,no change,-0.04,-0.92,inactive

Laid out differently: results already given.
gene | viability hit class | caspase hit class | viability robust z-score | caspase robust z-score | Outcome
MTX3 | no change | no change | -0.02 | -1.08 | inactive
LRCH2 | no change | no change | -0.67 | -0.76 | inactive
LMO1 | no change | no change | -0.4 | 0.06 | inactive
OR2J3 | no change | no change | 1.89 | 0.06 | inactive
OPHN1 | no change | no change | 0.16 | -0.54 | inactive
ZNF114 | no change | no change | -0.14 | -0.42 | inactive
HUS1B | no change | no change | 0.64 | -0.86 | inactive
NUDCD1 | no change | no change | -0.39 | -1.12 | inactive
NPBWR2 | no change | CA2 (caspase activation) | 0.11 | 5.77 | active

Further reagents follow:
gene,viability hit class,caspase hit class,viability robust z-score,caspase robust z-score,Outcome
ORC4,no change,no change,-0.28,-0.85,inactive
TSLIG3C,no change,no change,-0.63,3.08,inactive
ARL4C,no change,no change,-1.07,4.5,inactive
GAB2,no change,no change,-0.11,0.43,inactive
RTN4IP1,no change,no change,0.82,3.09,inactive
SEH1L,no change,no change,-1.43,-0.5,inactive
FBRS,no change,no change,-0.83,1.67,inactive
CLPX,no change,no change,-0.37,-0.58,inactive
CRLS1,no change,no change,0.7,0.18,inactive
UGT2B7,no change,no change,-1.57,-0.14,inactive
NIPA2,no change,no change,-0.12,2.45,inactive
APOD,no change,no change,1.44,-0.46,inactive
PCDHGB2,no change,no change,-0.24,-0.72,inactive
CCDC15,no change,no change,0.78,2.8,inactive
CHMP4C,no change,no change,0.74,-0.16,inactive
ACVR2A,no change,no change,0.04,-0.38,inactive
PRSS33,no change,no change,0.85,1.38,inactive
RAB41,no change,no change,-0.2,-0.98,inactive
MUSTN1,no change,no change,-2,0.28,inactive
EHD2,no change,no change,1.6,0.8,inactive
SLC2A14,no change,no change,1.05,1.58,inactive
OR1Q1,no change,no change,0.53,-0.83,inactive
KIDINS220,no change,no change,0.64,-0.05,inactive
CNOT3,no change,CA2 (caspase activation),0.21,6.2,active
KCNK1,no change,no change,0.12,-0.59,inactive
GATB,no change,no change,0.4,1.29,inactive
CLCC1,no change,no change,-0.21,0.4,inactive
H2AZ1,no change,no change,0.1,2.02,inactive
ST6GALNAC6,no change,no change,-0.68,0.01,inactive
ZDHHC9,no change,no change,0.13,3.3,inactive
